This note sets out measurements from article PMC5149529.

Protein sequences, listed by entry. Tags and fused reporters are not part of them.
UniProt P70288: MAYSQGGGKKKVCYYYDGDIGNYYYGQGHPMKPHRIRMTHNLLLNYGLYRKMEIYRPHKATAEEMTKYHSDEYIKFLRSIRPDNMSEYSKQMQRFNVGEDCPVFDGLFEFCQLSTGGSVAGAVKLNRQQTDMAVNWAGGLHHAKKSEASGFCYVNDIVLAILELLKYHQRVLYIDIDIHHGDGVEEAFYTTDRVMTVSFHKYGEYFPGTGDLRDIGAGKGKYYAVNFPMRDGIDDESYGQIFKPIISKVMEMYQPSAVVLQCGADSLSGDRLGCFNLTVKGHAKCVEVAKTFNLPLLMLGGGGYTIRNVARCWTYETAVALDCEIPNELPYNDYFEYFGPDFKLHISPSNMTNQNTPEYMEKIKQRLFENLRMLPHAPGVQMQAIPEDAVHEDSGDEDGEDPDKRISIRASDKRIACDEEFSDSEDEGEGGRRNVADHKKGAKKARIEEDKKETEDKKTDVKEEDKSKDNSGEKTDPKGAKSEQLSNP
UniProt B1AR17: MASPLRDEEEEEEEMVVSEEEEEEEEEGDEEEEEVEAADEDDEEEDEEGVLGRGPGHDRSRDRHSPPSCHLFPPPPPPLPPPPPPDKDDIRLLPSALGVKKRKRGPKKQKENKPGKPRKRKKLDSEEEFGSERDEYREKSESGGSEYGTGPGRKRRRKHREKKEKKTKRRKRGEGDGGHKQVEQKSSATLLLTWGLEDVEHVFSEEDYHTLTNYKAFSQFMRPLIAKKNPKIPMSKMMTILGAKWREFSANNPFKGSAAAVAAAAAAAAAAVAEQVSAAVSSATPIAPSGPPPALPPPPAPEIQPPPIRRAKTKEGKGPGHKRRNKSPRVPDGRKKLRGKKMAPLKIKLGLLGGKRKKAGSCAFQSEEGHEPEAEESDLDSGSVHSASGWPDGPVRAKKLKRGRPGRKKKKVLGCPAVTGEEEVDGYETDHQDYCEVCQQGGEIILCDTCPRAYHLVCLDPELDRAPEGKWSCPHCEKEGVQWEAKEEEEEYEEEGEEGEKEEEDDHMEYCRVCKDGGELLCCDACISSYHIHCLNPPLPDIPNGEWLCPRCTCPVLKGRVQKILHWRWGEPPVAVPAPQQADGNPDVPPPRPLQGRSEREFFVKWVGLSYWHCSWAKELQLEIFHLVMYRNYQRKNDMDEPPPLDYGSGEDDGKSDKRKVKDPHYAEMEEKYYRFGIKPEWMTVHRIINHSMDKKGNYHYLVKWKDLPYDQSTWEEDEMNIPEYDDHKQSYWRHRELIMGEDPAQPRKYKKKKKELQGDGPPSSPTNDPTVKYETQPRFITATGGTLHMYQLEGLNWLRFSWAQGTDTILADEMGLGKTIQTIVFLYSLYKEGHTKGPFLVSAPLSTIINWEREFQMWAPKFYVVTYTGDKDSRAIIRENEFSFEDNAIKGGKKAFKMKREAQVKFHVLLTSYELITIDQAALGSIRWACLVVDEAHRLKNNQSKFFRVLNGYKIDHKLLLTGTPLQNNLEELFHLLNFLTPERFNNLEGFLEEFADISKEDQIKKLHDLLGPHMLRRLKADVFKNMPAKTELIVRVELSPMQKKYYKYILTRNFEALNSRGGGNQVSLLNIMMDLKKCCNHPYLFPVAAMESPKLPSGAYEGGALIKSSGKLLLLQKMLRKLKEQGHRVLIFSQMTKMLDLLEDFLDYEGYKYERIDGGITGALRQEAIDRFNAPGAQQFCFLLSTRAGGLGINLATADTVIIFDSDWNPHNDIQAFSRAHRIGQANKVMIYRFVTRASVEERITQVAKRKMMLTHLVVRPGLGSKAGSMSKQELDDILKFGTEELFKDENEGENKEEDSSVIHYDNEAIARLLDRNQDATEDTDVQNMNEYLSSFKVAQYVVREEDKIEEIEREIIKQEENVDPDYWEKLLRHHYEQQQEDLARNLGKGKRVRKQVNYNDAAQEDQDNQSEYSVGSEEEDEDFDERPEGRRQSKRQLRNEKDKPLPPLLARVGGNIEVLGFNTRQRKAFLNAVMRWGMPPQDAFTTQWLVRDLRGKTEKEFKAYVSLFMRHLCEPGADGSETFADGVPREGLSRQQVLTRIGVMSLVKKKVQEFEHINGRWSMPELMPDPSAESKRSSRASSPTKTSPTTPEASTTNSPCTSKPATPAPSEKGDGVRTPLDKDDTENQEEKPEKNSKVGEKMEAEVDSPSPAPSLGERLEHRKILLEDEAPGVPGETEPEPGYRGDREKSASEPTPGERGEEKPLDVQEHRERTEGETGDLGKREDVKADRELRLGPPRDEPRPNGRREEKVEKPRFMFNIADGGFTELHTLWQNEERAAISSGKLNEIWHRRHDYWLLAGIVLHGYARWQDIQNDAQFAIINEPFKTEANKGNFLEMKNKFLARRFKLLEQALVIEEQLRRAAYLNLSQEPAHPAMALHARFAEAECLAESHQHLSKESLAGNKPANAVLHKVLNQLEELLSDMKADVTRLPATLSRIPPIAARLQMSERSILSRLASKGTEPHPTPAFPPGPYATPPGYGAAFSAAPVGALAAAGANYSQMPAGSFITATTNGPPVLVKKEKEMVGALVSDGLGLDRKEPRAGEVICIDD
UniProt A2A8L1: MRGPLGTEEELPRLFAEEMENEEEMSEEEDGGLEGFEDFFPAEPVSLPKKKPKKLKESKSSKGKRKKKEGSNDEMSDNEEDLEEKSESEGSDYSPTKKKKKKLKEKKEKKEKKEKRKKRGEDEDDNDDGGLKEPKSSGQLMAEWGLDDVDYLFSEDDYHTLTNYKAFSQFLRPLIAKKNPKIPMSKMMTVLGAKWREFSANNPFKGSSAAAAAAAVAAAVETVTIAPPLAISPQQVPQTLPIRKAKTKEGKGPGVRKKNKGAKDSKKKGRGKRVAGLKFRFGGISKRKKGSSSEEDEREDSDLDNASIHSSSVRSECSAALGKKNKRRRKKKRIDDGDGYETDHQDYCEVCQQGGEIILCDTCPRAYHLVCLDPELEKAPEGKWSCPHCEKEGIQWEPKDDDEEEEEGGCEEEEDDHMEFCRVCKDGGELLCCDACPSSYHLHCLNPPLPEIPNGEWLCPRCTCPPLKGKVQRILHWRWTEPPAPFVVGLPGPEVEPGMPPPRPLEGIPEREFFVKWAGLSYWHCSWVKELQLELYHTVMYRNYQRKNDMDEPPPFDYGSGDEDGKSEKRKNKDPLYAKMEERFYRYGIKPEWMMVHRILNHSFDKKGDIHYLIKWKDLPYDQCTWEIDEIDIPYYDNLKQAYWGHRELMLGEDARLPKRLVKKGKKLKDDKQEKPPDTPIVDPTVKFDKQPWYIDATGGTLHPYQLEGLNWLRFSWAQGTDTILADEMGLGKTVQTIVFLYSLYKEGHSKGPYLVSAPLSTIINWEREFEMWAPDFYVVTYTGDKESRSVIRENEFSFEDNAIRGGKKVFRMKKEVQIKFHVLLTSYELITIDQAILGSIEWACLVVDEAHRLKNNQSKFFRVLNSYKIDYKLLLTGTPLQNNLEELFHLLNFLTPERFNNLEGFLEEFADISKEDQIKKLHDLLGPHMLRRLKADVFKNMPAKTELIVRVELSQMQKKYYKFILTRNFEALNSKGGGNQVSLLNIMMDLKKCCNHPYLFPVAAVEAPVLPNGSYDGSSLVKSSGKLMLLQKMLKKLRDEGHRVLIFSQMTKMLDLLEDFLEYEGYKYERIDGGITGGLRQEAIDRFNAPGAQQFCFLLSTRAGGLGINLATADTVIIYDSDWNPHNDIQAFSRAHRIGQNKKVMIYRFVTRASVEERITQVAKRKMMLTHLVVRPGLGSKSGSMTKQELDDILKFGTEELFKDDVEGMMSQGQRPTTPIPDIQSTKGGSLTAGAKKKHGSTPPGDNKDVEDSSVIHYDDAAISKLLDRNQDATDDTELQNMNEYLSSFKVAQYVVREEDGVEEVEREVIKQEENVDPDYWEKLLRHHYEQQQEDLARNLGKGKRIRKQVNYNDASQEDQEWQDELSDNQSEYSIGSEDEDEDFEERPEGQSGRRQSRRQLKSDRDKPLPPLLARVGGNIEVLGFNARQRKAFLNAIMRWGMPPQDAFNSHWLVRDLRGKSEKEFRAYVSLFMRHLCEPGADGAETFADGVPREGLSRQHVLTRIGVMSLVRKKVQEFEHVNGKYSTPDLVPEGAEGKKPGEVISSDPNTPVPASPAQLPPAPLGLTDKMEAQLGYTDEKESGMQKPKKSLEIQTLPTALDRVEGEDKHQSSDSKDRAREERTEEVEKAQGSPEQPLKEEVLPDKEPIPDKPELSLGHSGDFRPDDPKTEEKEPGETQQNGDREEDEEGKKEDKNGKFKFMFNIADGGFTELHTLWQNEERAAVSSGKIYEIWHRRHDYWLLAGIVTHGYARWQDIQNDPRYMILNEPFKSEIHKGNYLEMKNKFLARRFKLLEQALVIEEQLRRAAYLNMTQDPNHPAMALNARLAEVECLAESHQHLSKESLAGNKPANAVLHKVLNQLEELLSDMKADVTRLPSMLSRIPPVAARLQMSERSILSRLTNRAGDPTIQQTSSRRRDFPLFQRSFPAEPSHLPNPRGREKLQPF

The target of this assay is HDAC2 (mouse (endogenous in embryonic cortex)) (UniProt P70288). Briefly: affinity purification with mass spectrometry; lysates of mouse cortices dissected at E12.5, E15.5 and E18.5 incubated with HDAC2 antibody or normal IgG; immune complexes eluted, digested with lys-C and trypsin, MS/MS.

These are yes or no findings as the source states them, for the method shown. Binding seen in cells or lysates may run through a third protein. These calls come from enrichment with a bait or labelling near it, and not all partners need be listed.

Turning to CHD3 (from UniProt B1AR17 1-2055), the binding entry was “binds”.

For CHD5 (from UniProt A2A8L1 1-1946), the binding entry was “binds”.
